# Reference: PubChem BioAssay AID493014 (National Center for Advancing Translational Sciences (NCATS), 2011)
# Several values for one entry are separate records, joined by “and”; a condition that tells them apart may be missing. Equal entries are not always repeated. Some of the results follow. The main result of the screen is listed elsewhere. These columns were measured beside it and carry no call. Most of these compounds were active or inconclusive in the main read-out, so they are no random draw. Potencies come from curve fits of mixed quality, noted in brackets.
# Assay: qHTS Assay to Find Inhibitors of Chronic Active B-Cell Receptor Signaling
# Conditions: ABC-DLBCL IkBa-CBG/CBR reporter, luminescence ratio (green luciferase fused to IkBa over red control in TMD8 lymphoma cells), 4 h
# In short: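 Cell line TMD8 (human ABC DLBCL), stably expressing tet-inducible CBG68-IkBa fusion and CBR; IMDM/0.5% FBS; cpd up to 46 uM; dox induction, 4 h, 37C/5% CO2; dual luminescence; green/red ratio; MG132 control.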
# [1] = measured here: CBR red luminescence, cell number
# [2] = measured here: IkBa-CBG green luminescence
SMILES,AC50 [1],AC50 [2]
CCOC(=O)c1ccc(Nc2cc(C)nc(-c3ccccc3O)n2)cc1,"0.731 µM [falling, partial curve]",–
CCCCC(=O)Nc1ccc(C(=O)N2CCN(c3ccccc3OC)CC2)cc1,"0.291 µM [rising, partial curve, poor fit]","3.66 µM [falling, partial curve, poor fit]"
CN(N=Nc1cccc([N+](=O)[O-])c1)c1ccccc1,"20 µM [rising, partial curve, poor fit]",–
COCCNC(=O)c1cn(C)c2ccccc2c1=O,"0.631 µM [rising, full curve, poor fit]",–
CNC(=O)c1ccc(Nc2nc(-c3ccccc3)nc3ccccc23)cc1,"8.91 µM [falling, partial curve]",–
Cc1nnc(SC(C)C(=O)N2CCc3ccccc32)s1 (stereo not drawn),"6.51 µM [rising, single point]","5.8 µM [falling, partial curve, poor fit]"
COc1ccc(S(=O)(=O)N2CCN(C(=O)c3cc(C)oc3C)CC2)cc1OC,"2.59 µM [rising, partial curve, poor fit]",–
O=C(c1ccc2ccccc2c1)N1CCN(Cc2ccccc2)CC1,"35.5 µM [falling, single point]",–
CCCCCCCNC(=O)C1(CC2CC(c3ccccc3)=NO2)CCN(C(=O)c2ccccc2)CC1 (stereo not drawn),"0.82 µM [rising, full curve, poor fit]",–
Cc1ccc(/C(N)=N/OC(=O)c2ccc(C)cc2Cl)cc1,"0.517 µM [rising, full curve, poor fit]",–
Fc1ccc(-c2nc(-c3cccs3)[nH]c2-c2ccc(F)cc2)cc1,"18.4 µM [falling, partial curve]",–
O=C(NC1CCCCC1)c1noc2c1CCCCC2,"10.3 µM [falling, partial curve]",–
O=C(Nc1ncc(S(=O)(=O)c2ccc([N+](=O)[O-])cc2)s1)c1cccnc1,"35.5 µM [rising, single point]",–
O=C(CSc1ncnc2c1cnn2-c1ccccc1)Nc1ccc2c(c1)OCO2,"11.2 µM [falling, partial curve, poor fit]",–
Cn1nc(C(=O)NNC(=O)c2ccccc2Br)c2ccccc2c1=O,"11.6 µM [falling, partial curve]",–
Cc1cc(=O)c(C(=O)O)cn1-c1ccc(C(C)C)cc1,"7.08 µM [rising, partial curve, poor fit]",–
Cc1ccc(OCc2cc(C(=O)N3CCN(CC(=O)NC(C)C)CC3)no2)cn1,"3.16 µM [falling, single point]",–
O=C(Nc1ccc(OC(F)(F)F)cc1)N1CCN(c2ccnc3cc(Cl)ccc23)CC1,"0.891 µM [falling, full curve, poor fit]",–
CCCCN(CCCC)C(=O)c1c[nH]c2ccc(S(=O)(=O)Nc3cccc(Cl)c3C)cc2c1=O,"20.6 µM [falling, single point]","18.4 µM [rising, partial curve, poor fit]"
Cc1ccc(C(=O)Nc2cnc3ccccn3c2=O)cc1,"9.2 µM [falling, partial curve] and 15.8 µM [falling, single point]",–

SMILES,AC50 [1],AC50 [2]
CCOC(=O)C1=C(N)Oc2cc(O)ccc2C1c1cccc([N+](=O)[O-])c1 (stereo not drawn),"25.1 µM [falling, single point]",–
Cc1cc(OCCCCN2C(=O)NC(C)(C)C2=O)ccc1[N+](=O)[O-],"1.12 µM [falling, full curve, poor fit]",–
Cn1cc(SCC(N)=O)c2ccccc21,"25.9 µM [rising, single point]",–
Cn1c(C(=O)N2CCN(c3ncccn3)CC2)cc2c(=O)n(C)c3ccccc3c21,"32.6 µM [falling, partial curve, poor fit]",–
CN(CC(=O)Nc1ccc(Cl)cc1)CC(=O)Nc1cccc(Br)c1,"17.8 µM [falling, single point]",–
CC(=O)N1CCN(CC(=O)Nc2ccc([N+](=O)[O-])cc2Br)CC1,"35.5 µM [rising, single point]",–
Cc1ccc(-c2cc(C(=O)OCn3nnc4ccccc4c3=O)c3ccccc3n2)cc1,"2.31 µM [rising, partial curve, poor fit]",–
N#Cc1cc(C(=O)c2cc(Cl)ccc2O)cn(CC2CCCO2)c1=O (stereo not drawn),"6.31 µM [rising, single point]",–
CCc1nnc2sc(-c3cc(-c4ccccc4)nc4ccccc34)nn12,"16.4 µM [falling, single point]",–
O=C(c1ccc(S(=O)(=O)c2ccc(F)cc2)c([N+](=O)[O-])c1)N1CCCCCC1,"32.6 µM [falling, partial curve, poor fit]",–
O=c1c2ccccc2cnn1-c1nc2ccccc2[nH]1,"0.708 µM [falling, full curve]",–
COCCn1c(SCC(=O)Nc2ccccc2F)nc2c(c1=O)SCC2,"35.5 µM [falling, single point]",–
COC(=O)c1cc(C(=O)OC)[nH]n1,"3.55 µM [falling, single point]",–
CCOc1ccc(CO[C@@H]2O[C@H](CO)[C@@H](O)[C@H](O)[C@H]2NC(C)=O)cc1OC,"20 µM [rising, single point]",–
CN1CCS/C1=C/C=C1/SC(=S)N(Cc2ccccc2)C1=O,"23.1 µM [rising, single point]",–
CC(C)Cn1cnc2sc3c(c2c1=N)CCCC3,"1.84 µM [falling, partial curve, poor fit]",–
Cc1nc2ccc(NC(=O)COc3ccccc3F)cc2s1,"35.5 µM [falling, single point]",–
COc1ccc(S(=O)(=O)N(CC(=O)Nc2ccc(Br)cc2)Cc2ccccc2)cc1,"2.51 µM [rising, partial curve]",–
CCOC(=O)c1c(C)[nH]c(-c2csc(C)n2)c1C,"7.08 µM [rising, partial curve, poor fit]",–
CNC(C)C(=O)NC(C(=O)N1CCCC1C(=O)NC1CCCc2ccccc21)C(C)C (stereo not drawn),"6.51 µM [rising, partial curve]",–

# Among those listed so far, these have a thiophene ring, fused or not.
SMILES,AC50 [1],AC50 [2]
Fc1ccc(-c2nc(-c3cccs3)[nH]c2-c2ccc(F)cc2)cc1,"18.4 µM [falling, partial curve]",–
CC(C)Cn1cnc2sc3c(c2c1=N)CCCC3,"1.84 µM [falling, partial curve, poor fit]",–
